Results are given in words; binding and its absence hold for the method and conditions named. For some of these results: Binding calls can cover weak binding; strength is not graded here. Sequences can lack the tags named with a protein.
Columns and labels:
Experiment in all cases: two-hybrid; Gal4-AD (pACT2-Oxr1) with Gal4-BD (pFBT9-Rab) in strain PJ96-4A; growth on SC-LW and QDO, 3 d, 30 °C
[1] = target: Rab1 GDP-restricted mutant (Gal4-BD, pFBT9)
[2] = target: Rab1 GTP-restricted mutant (Gal4-BD, pFBT9)
Rab1 WT (Gal4-BD, pFBT9) = target: Rab1 WT (Gal4-BD, pFBT9)
[3] = target: Rab10 GDP-restricted mutant (Gal4-BD, pFBT9) (UniProt P61026)
[4] = target: Rab10 GTP-restricted mutant (Gal4-BD, pFBT9) (UniProt P61026)
[5] = target: Rab19b GDP-restricted mutant (Gal4-BD, pFBT9) (UniProt A4D1S5)
[6] = target: Rab19b GTP-restricted mutant (Gal4-BD, pFBT9) (UniProt A4D1S5)
[7] = target: Rab39a GDP-restricted mutant (Gal4-BD, pFBT9) (UniProt Q14964)
[8] = target: Rab39a GTP-restricted mutant (Gal4-BD, pFBT9) (UniProt Q14964)
[9] = target: Rab43 GDP-restricted mutant (Gal4-BD, pFBT9) (UniProt Q86YS6)
[10] = target: Rab43 GTP-restricted mutant (Gal4-BD, pFBT9) (UniProt Q86YS6)
[11] = target: Rab6 GDP-restricted mutant (Gal4-BD, pFBT9) (UniProt P20340)
[12] = target: Rab6 GTP-restricted mutant (Gal4-BD, pFBT9) (UniProt P20340)
[13] = target: Rab8 GDP-restricted mutant (Gal4-BD, pFBT9)
[14] = target: Rab8 GTP-restricted mutant (Gal4-BD, pFBT9)
Rab8 WT (Gal4-BD, pFBT9) = target: Rab8 WT (Gal4-BD, pFBT9)

Amino acid sequences for entries named in this document (tags omitted). A change or cut given only in a name is not applied to a line headed by its entry.
UniProt P61026: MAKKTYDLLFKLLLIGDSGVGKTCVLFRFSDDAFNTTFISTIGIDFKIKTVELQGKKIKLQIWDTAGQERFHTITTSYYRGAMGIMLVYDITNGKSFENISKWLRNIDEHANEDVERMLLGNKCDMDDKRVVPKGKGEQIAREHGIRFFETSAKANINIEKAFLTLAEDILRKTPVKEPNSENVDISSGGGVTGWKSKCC
UniProt A4D1S5: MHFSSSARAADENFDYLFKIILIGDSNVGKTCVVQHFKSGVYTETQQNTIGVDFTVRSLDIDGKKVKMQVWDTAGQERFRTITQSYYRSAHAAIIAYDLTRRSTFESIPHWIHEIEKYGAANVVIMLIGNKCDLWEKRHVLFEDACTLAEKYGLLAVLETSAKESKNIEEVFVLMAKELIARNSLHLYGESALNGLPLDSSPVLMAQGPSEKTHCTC
UniProt Q14964: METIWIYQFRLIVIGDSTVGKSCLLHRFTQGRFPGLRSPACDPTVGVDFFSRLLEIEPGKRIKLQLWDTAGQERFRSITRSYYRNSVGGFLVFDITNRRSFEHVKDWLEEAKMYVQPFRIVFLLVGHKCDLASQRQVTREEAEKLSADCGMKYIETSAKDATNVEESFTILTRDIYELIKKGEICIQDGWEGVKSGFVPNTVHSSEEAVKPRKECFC
UniProt Q86YS6: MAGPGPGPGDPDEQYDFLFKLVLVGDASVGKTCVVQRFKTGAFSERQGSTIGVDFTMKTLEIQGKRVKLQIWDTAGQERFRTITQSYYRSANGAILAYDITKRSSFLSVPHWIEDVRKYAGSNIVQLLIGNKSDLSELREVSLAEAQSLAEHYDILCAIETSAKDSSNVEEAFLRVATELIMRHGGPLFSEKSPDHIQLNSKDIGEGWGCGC
UniProt P20340: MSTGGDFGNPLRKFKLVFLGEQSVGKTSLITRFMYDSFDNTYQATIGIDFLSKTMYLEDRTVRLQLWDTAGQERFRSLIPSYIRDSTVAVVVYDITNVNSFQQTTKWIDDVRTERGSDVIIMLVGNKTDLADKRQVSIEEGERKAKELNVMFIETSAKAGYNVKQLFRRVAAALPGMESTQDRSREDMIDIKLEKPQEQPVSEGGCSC

binding [1]: no binding
binding [2]: binds
binding (Rab1 WT (Gal4-BD, pFBT9)): binds weakly
binding [3]: no binding
binding [4]: binds
binding [5]: no binding
binding [6]: binds
binding [7]: no binding
binding [8]: binds
binding [9]: no binding
binding [10]: binds
binding [11]: no binding
binding [12]: binds
binding [13]: no binding
binding [14]: binds
binding (Rab8 WT (Gal4-BD, pFBT9)): binds weakly
B1: Gal4-AD Oxr1 (pACT2-Oxr1) (protein, UniProt Q4KMM3-1 1-866)
chain: MSVSNLSWLKKKSQSVDITAPGFNPLGGAGKQAPQASKPPAPKTPIIEEEQNNSANTQKHPSRKSELKRFYTIDTGQKKTLDKKDGRRMSFQKPKGTIEYTVESRDSLNSIALKFDTTPNELVQLNKLFSRAVVTGQVLYVPDPEYVSSVESSPSLSPVSPLSPTSSEAEFDKTTTPDVAHPKEAPPASTVSGIRPARVVSSTSEEEEAFTEKFLKINCKYITIGKGTVSGVLLVTPNNIMFDPHKTDPLVQENGCEEYGIMCPMEEVMSAAMYKEILDSKIKESLPIELDQLSGRGSCHSKKATGVSAEDADPRARDQGNDSASTAPRSTEESLSEDAFTESELSPIREELLSSEPRQEKSSDASSESVQTVSQMEVQSLTATSEAANVPDRTSSNPGALSHETGLSGLETATKGGDKATESLQEVSGPKEQSTEVKGQDNQDSSHQESSLQQEAGEDSVSSGETVELKEKPAVLKDQQGQELKRDSETEVEELRKLWKTHSMQQAKQQRDTIQQVSQRESKHSSAAADAHGEGSSLLKEKRRHRLHKFLCLRVGKPMRKTFVSQASATMQQYAQRDKKHEYWFAVPQERTDHLYAFFIQWSPEIYAEDSGEYTREPGFIVVKKMDESEANEAPAGEAAAREWEVVSVAEYHRRIDALNTEELRTLCRRLQITTREDINSKQVAPAKADLEPESFRPNLSDPSELLLPDQIEKLTKHLPPRTIGYPWTLVYGTGKHGTSLKTLYRTMTGLDTPVLMVIKDSDGQVFGALASEPFKVSDGFYGTGETFVFTFCPEFEVFKWTGDNMFFIKGDMDSLAFGGGGGEFALWLDGDLYHGRSHSCKTFGNHTLSKKEDFFIQDIEIWAFE

Reference: paper PMC12146697
